Data from the supplement of paper PMC10849652.
The other results are listed elsewhere or left out.

By UniProt entry, the sequences of proteins in these tests, tags left out. Where a name states a change or a piece, a line headed by the entry shows the natural chain unless it says otherwise.
UniProt Q96N11, whole entry, looked up: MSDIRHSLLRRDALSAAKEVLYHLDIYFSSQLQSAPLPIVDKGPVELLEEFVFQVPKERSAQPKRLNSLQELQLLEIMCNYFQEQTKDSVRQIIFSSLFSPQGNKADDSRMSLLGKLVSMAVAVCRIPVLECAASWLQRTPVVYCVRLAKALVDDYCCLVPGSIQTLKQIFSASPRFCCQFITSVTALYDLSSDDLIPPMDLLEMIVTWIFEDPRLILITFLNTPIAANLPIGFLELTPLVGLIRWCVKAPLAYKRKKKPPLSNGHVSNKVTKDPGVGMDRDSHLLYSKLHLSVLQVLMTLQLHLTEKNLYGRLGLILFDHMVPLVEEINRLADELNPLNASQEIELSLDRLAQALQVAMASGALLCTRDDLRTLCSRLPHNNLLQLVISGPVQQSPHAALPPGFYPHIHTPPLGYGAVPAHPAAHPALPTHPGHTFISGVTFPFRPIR
UniProt O75808: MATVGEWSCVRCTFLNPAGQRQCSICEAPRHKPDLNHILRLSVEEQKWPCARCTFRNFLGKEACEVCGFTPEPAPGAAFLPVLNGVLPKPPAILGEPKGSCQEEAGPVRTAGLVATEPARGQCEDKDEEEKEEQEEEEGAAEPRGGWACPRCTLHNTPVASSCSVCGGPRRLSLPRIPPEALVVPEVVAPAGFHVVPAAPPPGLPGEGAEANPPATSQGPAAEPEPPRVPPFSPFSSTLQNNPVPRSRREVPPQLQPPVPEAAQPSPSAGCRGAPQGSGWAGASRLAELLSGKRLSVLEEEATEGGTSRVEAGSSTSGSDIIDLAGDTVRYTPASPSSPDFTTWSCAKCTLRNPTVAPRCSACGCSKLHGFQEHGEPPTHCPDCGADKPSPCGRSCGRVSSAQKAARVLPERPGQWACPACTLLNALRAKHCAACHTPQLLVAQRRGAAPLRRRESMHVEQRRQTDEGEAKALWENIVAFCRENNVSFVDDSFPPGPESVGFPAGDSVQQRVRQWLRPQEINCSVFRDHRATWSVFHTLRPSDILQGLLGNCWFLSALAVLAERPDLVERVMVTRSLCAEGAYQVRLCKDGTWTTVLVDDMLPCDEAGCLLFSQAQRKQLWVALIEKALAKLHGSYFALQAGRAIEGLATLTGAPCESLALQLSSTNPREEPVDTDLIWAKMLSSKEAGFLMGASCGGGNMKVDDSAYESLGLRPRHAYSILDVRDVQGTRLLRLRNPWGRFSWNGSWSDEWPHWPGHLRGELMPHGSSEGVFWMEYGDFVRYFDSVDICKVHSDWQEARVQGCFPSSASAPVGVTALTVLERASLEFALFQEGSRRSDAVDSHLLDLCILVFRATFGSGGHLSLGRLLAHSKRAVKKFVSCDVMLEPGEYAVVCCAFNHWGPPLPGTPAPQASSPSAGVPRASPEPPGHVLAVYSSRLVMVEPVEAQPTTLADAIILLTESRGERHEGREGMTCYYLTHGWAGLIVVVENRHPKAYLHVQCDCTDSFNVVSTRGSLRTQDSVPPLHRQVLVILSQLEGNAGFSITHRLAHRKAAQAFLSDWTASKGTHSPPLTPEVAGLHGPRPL
UniProt Q7Z7L8: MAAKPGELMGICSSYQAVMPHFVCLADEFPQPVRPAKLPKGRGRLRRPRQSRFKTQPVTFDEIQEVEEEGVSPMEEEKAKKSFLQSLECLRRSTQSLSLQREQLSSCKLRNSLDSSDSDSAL
UniProt Q9NSG2: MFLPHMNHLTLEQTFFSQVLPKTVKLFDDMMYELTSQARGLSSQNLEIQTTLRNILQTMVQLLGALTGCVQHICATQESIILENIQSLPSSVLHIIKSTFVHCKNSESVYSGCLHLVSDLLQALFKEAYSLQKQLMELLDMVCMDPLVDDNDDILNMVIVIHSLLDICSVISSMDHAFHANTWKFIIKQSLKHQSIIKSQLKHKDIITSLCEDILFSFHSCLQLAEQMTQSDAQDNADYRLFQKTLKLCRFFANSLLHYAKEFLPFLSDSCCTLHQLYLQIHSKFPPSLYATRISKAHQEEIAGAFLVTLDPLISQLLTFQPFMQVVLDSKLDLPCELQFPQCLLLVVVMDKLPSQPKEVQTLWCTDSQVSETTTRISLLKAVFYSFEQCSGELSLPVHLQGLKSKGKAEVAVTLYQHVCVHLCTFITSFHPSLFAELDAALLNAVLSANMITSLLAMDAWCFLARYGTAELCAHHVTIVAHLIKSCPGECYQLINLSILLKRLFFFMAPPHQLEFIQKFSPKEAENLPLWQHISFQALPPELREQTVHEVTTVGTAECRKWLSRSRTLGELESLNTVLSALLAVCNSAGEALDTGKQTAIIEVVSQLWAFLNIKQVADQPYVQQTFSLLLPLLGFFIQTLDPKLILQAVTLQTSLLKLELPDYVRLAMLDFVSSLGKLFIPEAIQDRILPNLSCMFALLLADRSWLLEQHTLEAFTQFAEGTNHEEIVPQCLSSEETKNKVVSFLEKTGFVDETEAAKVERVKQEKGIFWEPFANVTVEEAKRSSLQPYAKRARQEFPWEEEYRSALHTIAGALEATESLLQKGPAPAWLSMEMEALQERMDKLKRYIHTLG
UniProt Q6PH81: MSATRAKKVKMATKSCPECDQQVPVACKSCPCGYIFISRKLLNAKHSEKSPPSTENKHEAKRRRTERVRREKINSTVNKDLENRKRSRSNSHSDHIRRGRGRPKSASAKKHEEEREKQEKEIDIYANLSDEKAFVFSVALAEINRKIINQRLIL
UniProt Q9H3J6: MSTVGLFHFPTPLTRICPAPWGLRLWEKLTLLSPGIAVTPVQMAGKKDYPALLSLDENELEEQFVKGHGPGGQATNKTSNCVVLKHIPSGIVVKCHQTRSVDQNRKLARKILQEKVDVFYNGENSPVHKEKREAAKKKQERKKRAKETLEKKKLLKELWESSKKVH
UniProt Q96F05: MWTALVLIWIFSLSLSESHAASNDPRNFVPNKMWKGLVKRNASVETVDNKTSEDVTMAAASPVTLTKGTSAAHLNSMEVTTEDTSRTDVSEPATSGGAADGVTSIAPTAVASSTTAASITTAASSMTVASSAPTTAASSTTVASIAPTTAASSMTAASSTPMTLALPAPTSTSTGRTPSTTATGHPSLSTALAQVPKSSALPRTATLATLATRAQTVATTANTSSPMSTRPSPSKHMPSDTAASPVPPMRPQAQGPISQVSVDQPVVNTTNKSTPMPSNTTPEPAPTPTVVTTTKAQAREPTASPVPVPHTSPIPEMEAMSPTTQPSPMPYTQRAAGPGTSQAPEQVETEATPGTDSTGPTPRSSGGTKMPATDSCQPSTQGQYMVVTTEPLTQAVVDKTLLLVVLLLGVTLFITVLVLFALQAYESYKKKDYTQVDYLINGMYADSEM
UniProt Q0VDD7: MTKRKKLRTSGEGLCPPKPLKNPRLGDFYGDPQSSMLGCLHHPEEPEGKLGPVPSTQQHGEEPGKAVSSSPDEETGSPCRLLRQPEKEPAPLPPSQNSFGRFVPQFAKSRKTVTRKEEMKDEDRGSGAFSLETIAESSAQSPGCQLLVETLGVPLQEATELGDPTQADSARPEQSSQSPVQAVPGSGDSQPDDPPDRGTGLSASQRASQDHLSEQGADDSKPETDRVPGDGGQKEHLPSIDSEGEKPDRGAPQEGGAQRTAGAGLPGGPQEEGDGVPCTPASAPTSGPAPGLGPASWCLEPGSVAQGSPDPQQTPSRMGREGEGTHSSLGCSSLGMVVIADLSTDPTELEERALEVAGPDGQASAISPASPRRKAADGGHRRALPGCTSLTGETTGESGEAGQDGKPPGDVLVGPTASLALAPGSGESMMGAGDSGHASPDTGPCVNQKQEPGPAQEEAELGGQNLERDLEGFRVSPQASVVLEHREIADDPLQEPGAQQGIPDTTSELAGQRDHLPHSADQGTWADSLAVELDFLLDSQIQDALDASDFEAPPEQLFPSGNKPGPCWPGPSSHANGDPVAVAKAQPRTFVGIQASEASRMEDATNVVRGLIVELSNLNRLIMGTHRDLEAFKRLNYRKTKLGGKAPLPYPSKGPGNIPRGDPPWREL
UniProt Q5BKX5: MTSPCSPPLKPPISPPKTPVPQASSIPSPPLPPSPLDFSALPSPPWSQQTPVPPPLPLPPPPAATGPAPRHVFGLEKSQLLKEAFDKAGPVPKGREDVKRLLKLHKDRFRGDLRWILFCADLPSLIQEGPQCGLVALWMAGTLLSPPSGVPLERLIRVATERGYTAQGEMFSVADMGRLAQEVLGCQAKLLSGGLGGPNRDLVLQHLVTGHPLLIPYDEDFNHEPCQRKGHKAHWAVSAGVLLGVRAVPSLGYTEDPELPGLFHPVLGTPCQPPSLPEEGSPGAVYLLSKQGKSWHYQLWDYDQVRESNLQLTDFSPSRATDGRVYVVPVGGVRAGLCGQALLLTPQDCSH
UniProt Q3KRA6: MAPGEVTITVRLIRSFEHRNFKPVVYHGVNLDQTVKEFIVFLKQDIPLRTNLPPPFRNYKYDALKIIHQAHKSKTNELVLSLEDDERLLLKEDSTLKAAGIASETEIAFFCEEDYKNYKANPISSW
UniProt Q7KYR7: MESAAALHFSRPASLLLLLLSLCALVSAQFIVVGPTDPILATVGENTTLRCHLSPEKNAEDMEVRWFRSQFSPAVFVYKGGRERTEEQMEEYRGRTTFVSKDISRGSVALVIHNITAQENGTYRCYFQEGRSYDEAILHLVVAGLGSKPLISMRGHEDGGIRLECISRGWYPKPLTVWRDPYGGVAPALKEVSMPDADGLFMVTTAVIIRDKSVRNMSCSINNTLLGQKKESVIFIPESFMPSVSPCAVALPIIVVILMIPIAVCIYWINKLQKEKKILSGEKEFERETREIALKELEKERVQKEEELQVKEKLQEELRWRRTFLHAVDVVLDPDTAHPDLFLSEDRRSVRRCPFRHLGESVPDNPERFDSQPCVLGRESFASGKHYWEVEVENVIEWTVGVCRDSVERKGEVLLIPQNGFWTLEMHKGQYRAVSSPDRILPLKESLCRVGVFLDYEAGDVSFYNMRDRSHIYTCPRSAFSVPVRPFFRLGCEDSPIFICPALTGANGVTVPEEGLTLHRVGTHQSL
UniProt Q9P1Z2: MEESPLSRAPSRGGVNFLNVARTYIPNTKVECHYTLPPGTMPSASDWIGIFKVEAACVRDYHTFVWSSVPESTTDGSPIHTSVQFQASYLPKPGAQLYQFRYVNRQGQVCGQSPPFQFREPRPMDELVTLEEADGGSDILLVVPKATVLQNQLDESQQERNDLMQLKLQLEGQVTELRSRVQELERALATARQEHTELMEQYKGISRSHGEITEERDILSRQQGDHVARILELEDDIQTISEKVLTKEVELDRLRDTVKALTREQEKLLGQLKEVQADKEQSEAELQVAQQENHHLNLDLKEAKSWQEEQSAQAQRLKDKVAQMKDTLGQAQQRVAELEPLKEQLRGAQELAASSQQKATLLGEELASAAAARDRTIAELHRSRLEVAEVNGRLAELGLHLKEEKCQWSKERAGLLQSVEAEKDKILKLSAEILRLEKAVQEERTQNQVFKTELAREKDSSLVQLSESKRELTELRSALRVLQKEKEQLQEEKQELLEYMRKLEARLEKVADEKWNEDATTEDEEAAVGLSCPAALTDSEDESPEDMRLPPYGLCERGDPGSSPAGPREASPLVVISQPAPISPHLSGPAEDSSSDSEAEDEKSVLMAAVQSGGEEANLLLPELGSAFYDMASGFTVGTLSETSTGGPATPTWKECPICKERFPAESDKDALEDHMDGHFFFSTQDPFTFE

How the values were obtained:
Assay in all cases: log2 fold change, soluble protein after heating vs DMSO (PISA); higher = thermal stabilisation; K562 cells, 10 uM, 30 min; active = over 0.2 and 3.5 SD of the protein, either way, in both replicates (recomputed)
[1] = compound: CS(=O)(=O)c1ccc(-c2cnc(N)c(C(=O)Nc3ccccc3)n2)cc1
Method in brief: (§1)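 Values are thermal stability changes relative to control samples and are taken from duplicates. They are stated as log2 fold changes. Before quantification by TMTpro 16plex LC-MS/MS with equalised channel sums, K562 cells at 2×10^6 cells/mL were treated with 10 μM compound for 30 min, heated in aliquots for 3 min across 48°C-58°C, pooled, extracted in PBS with 0.5% NP-40 at 4°C, and centrifuged at 21,000xg for 90 min to give the soluble supernatant.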

duvelisib = compound: C[C@H](Nc1ncnc2nc[nH]c12)c1cc2cccc(Cl)c2c(=O)n1-c1ccccc1 [duvelisib]
Method in brief: as §1

[2] = compound: Cc1cc(SCc2sc(-c3ccc(C(F)(F)F)cc3)nc2C)ccc1OCC(=O)O
Method in brief: as §1

dasatinib = compound: Cc1nc(Nc2ncc(C(=O)Nc3c(C)cccc3Cl)s2)cc(N2CCN(CCO)CC2)n1 [dasatinib]
Method in brief: as §1

crizotinib = compound: C[C@@H](Oc1cc(-c2cnn(C3CCNCC3)c2)cnc1N)c1c(Cl)ccc(F)c1Cl [crizotinib]
Method in brief: as §1

[3] = compound: C[C@@H]1COCCN1C2=NC(=NC(=C2)C3(CC3)S(=O)(=O)C)C4=C5C=CNC5=CC=C4
Method in brief: as §1

doramapimod = compound: Cc1ccc(-n2nc(C(C)(C)C)cc2NC(=O)Nc2ccc(OCCN3CCOCC3)c3ccccc23)cc1 [doramapimod]
Method in brief: as §1

ispinesib = compound: Cc1ccc(C(=O)N(CCCN)[C@@H](c2nc3cc(Cl)ccc3c(=O)n2Cc2ccccc2)C(C)C)cc1 [ispinesib]
Method in brief: as §1

bafetinib = compound: Cc1ccc(NC(=O)c2ccc(CN3CC[C@H](N(C)C)C3)c(C(F)(F)F)c2)cc1Nc1nccc(-c2cncnc2)n1 [bafetinib]
Method in brief: as §1

nilotinib = compound: Cc1cn(-c2cc(NC(=O)c3ccc(C)c(Nc4nccc(-c5cccnc5)n4)c3)cc(C(F)(F)F)c2)cn1 [nilotinib]
Method in brief: as §1

[4] = compound: Cc1nc(Nc2n[nH]c3c2CN(C(=O)N[C@H](CN(C)C)c2ccccc2)C3(C)C)c2sccc2n1
Method in brief: as §1

[5] = compound: Cc1ncc(-c2ccnc(Nc3ccc(S(C)(=O)=O)cc3)n2)n1C(C)C
Method in brief: as §1

[6] = compound: Cn1cc(-c2ccc3nnc(C(F)(F)c4ccc5ncccc5c4)n3n2)cn1
Method in brief: as §1

gandotinib = compound: Cc1cc(Nc2cc(CN3CCOCC3)c3nc(C)c(Cc4ccc(Cl)cc4F)n3n2)n[nH]1 [gandotinib]
Method in brief: as §1

[7] = compound: Cc1cccc(CC(=O)N2CCc3c2ccc(-c2cn(C)c4ncnc(N)c24)c3F)n1
Method in brief: as §1

tipifarnib = compound: Cn1cncc1[C@@](N)(c1ccc(Cl)cc1)c1ccc2c(c1)c(-c1cccc(Cl)c1)cc(=O)n2C [tipifarnib]
Method in brief: as §1

[8] = compound: C[C@H](C1=CC=C(C=C1)C(=O)NC2=C3C=CNC3=NC=C2)N
Method in brief: as §1

[9] = compound: Cn1cc(-c2ccc3c(c2)CCN3C(=O)Cc2cccc(C(F)(F)F)c2)c2c(N)ncnc21
Method in brief: as §1

tozasertib = compound: Cc1cc(Nc2cc(N3CCN(C)CC3)nc(Sc3ccc(NC(=O)C4CC4)cc3)n2)n[nH]1 [tozasertib]
Method in brief: as §1

mubritinib = compound: FC(F)(F)c1ccc(/C=C/c2nc(COc3ccc(CCCCn4ccnn4)cc3)co2)cc1 [mubritinib]
Method in brief: as §1

Measured: log2 fold change

CALM1 (UniProt G3V361)
inactive: [1] -0.051 | duvelisib -0.03 | [2] -0.121 | dasatinib -0.049

C7orf26 (UniProt Q96N11)
inactive: [1] 0.063 | crizotinib -0.049 | [3] 0.145 | doramapimod 0.125 | ispinesib 0.034 | bafetinib -0.074 | nilotinib -0.325 | [4] 0.005 | [5] 0 | [6] -0.008

CAPN15 (UniProt O75808)
inactive: [1] 0.014 | [3] -0.141 | gandotinib 0.062 | bafetinib -0.007 | [7] -0.136 | tipifarnib 0.015

Taken from the listing (two entries):
C7orf26 (UniProt Q96N11)
inactive: [1] 0.063 | crizotinib -0.049 | [3] 0.145 | doramapimod 0.125 | ispinesib 0.034 | bafetinib -0.074 | nilotinib -0.325 | [4] 0.005 | [5] 0 | [6] -0.008

CAPN15 (UniProt O75808)
inactive: [1] 0.014 | [3] -0.141 | gandotinib 0.062 | bafetinib -0.007 | [7] -0.136 | tipifarnib 0.015

(cont.)

C11orf96 (UniProt Q7Z7L8)
inactive: crizotinib -0.242 | [3] -0.138 | [8] 0.033 | gandotinib -0.066 | doramapimod 0.167 | ispinesib 0.047 | [7] 0.028 | [9] -0.141 | [6] 0.03 | tipifarnib 0.083

C1orf112 (UniProt Q9NSG2)
inactive: [1] 0.087 | duvelisib 0.103 | gandotinib -0.131 | tozasertib -0.048 | [2] 0.015 | [7] -0.035 | dasatinib -0.081 | tipifarnib 0.169

C16orf87 (UniProt Q6PH81)
inactive: [1] 0.047 | [3] 0.3 | bafetinib -0.082 | nilotinib -0.008 | [4] -0.043 | [5] -0.011 | mubritinib 0.158

C12orf65 (UniProt Q9H3J6)
inactive: [1] -0.316 | crizotinib -0.011 | [8] 0.231 | duvelisib -0.106 | [2] 0.056 | doramapimod 0.07 | ispinesib 0.012 | bafetinib 0.055 | nilotinib -0.08 | [4] 0.057 | dasatinib 0.008 | [5] -0.049 | [9] -0.128 | [6] -0.116 | mubritinib -0.051

C11orf24 (UniProt Q96F05)
inactive: [1] 0.036 | crizotinib -0.017 | [3] -0.048 | doramapimod 0.069 | ispinesib 0.025 | bafetinib -0.16 | [6] -0.046

C19orf57 (UniProt Q0VDD7)
inactive: crizotinib 0.015 | [8] 0.182 | duvelisib -0.037 | gandotinib -0.049 | [2] -0.105 | doramapimod 0.001 | ispinesib -0.036 | bafetinib 0.104 | [7] -0.088 | dasatinib -0.059 | [9] 0.021 | [6] 0

CAPN1 (UniProt E9PLX0)
inactive: [1] 0.023 | crizotinib 0.054 | doramapimod -0.038 | bafetinib -0.059

C19orf54 (UniProt Q5BKX5)
inactive: [1] -0.026 | crizotinib 0.025 | [3] 0.182 | [8] 0.127 | gandotinib -0.073 | [2] 0.032 | doramapimod -0.061 | ispinesib -0.091 | [7] 0.007 | dasatinib -0.175 | [9] 0.03 | [6] 0.14 | tipifarnib 0.013

C2orf76 (UniProt Q3KRA6)
inactive: [1] 0.052 | duvelisib 0.048 | tozasertib 0.03 | [2] 0.063 | bafetinib -0.004 | dasatinib -0.136 | mubritinib -0.079

BTN2A1 (UniProt Q7KYR7)
inactive: crizotinib 0.158 | [3] -0.288 | [8] -0.019 | duvelisib 0.165 | gandotinib 0.194 | tozasertib 0.035 | [2] -0.11 | doramapimod -0.091 | ispinesib -0.022 | bafetinib 0.1 | [7] -0.199 | nilotinib 0.016 | [4] -0.115 | dasatinib 0.017 | [5] -0.172 | [9] -0.044 | [6] -0.091 | tipifarnib 0.066

CALCOCO1 (UniProt Q9P1Z2)
inactive: crizotinib 0.036 | [3] 0 | [8] 0.019 | duvelisib -0.002 | gandotinib -0.083 | tozasertib 0.035 | [2] 0.003 | doramapimod 0.152 | ispinesib 0.042 | bafetinib 0.039 | [7] -0.017 | nilotinib 0.005 | [4] -0.072 | dasatinib -0.082 | [5] 0.019 | [9] -0.034 | [6] -0.077 | tipifarnib 0.099 | mubritinib 0.012
